Laboratory results from patent US20100003244A1 (TRIGEN, published 2010).
Results are given in words; binding and its absence hold for the method and conditions named. Ends that are not written are not given here.

Tests used:
Experiment in all cases: PepSpot array
GPVI peptide 108 (human) = target: T1, GPVI peptide 108 (human)
T1 sequence (peptide, N-terminus acetylated): EPPSSVAEFSEAT

GPVI peptide 94 (human) = target: T2, GPVI peptide 94 (human)
T2 sequence (peptide, N-terminus acetylated): DPYLWSAPSDPLE

GPVI peptide 113 (human) = target: T3, GPVI peptide 113 (human)
T3 sequence (peptide, N-terminus acetylated): EATAELTVSFTNK

GPVI peptide 15 (human) = target: T4, GPVI peptide 15 (human)
T4 sequence (peptide, N-terminus acetylated): SLQALPSSLVPLE

GPVI peptide 92 (human) = target: T5, GPVI peptide 92 (human)
T5 sequence (peptide, N-terminus acetylated): FSSRDPYLWSAPS

GPVI peptide 120 (human) = target: T6, GPVI peptide 120 (human)
T6 sequence (peptide, N-terminus acetylated): FTTETSRSITTSP

GPVI peptide 65 (human) = target: T7, GPVI peptide 65 (human)
T7 sequence (peptide, N-terminus acetylated): DVTLQCQTRYGFD

GPVI peptide 75 (human) = target: T8, GPVI peptide 75 (human)
T8 sequence (peptide, N-terminus acetylated): GDPAPYKNPERWY

GPVI peptide 47 (human) = target: T9, GPVI peptide 47 (human)
T9 sequence (peptide, N-terminus acetylated): GSLWSLPSDQLEL

GPVI peptide 41 (human) = target: T10, GPVI peptide 41 (human)
T10 sequence (peptide, N-terminus acetylated): SLAGRYRCSYQNG

GPVI peptide 30 (human) = target: T11, GPVI peptide 30 (human)
T11 sequence (peptide, N-terminus acetylated): LEKLSSSRYQDQA

GPVI peptide 128 (human) = target: T12, GPVI peptide 128 (human)
T12 sequence (peptide, N-terminus acetylated): DSPAGPARQYYTK

GPVI peptide 63 (human) = target: T13, GPVI peptide 63 (human)
T13 sequence (peptide, N-terminus acetylated): SSGGDVTLQCQTR

GPVI peptide 36 (human) = target: T14, GPVI peptide 36 (human)
T14 sequence (peptide, N-terminus acetylated): AVLFIPAMKRSLA

GPVI peptide 68 (human) = target: T15, GPVI peptide 68 (human)
T15 sequence (peptide, N-terminus acetylated): QTRYGFDQFALYK

GPVI peptide 31 (human) = target: T16, GPVI peptide 31 (human)
T16 sequence (peptide, N-terminus acetylated): KLSSSRYQDQAVL

GPVI peptide 16 (human) = target: T17, GPVI peptide 16 (human)
T17 sequence (peptide, N-terminus acetylated): QALPSSLVPLEKP

GPVI peptide 91 (human) = target: T18, GPVI peptide 91 (human)
T18 sequence (peptide, N-terminus acetylated): YSFSSRDPYLWSA

GPVI peptide 87 (human) = target: T19, GPVI peptide 87 (human)
T19 sequence (peptide, N-terminus acetylated): AHSGTYRCYSFSS

GPVI peptide 34 (human) = target: T20, GPVI peptide 34 (human)
T20 sequence (peptide, N-terminus acetylated): YQDQAVLFIPAMK

GPVI peptide 4 (human) = target: T21, GPVI peptide 4 (human)
T21 sequence (peptide, N-terminus acetylated): ALFCLGLCLGRVP

GPVI peptide 93 (human) = target: T22, GPVI peptide 93 (human)
T22 sequence (peptide, N-terminus acetylated): SRDPYLWSAPSDP

GPVI peptide 74 (human) = target: T23, GPVI peptide 74 (human)
T23 sequence (peptide, N-terminus acetylated): KEGDPAPYKNPER

GPVI peptide 115 (human) = target: T24, GPVI peptide 115 (human)
T24 sequence (peptide, N-terminus acetylated): ELTVSFTNKVFTT

GPVI peptide 26 (human) = target: T25, GPVI peptide 26 (human)
T25 sequence (peptide, N-terminus acetylated): PPGVDLYRLEKLS

GPVI peptide 88 (human) = target: T26, GPVI peptide 88 (human)
T26 sequence (peptide, N-terminus acetylated): SGTYRCYSFSSRD

GPVI peptide 126 (human) = target: T27, GPVI peptide 126 (human)
T27 sequence (peptide, N-terminus acetylated): PKESDSPAGPARQ

GPVI peptide 89 (human) = target: T28, GPVI peptide 89 (human)
T28 sequence (peptide, N-terminus acetylated): TYRCYSFSSRDPY

GPVI peptide 62 (human) = target: T29, GPVI peptide 62 (human)
T29 sequence (peptide, N-terminus acetylated): AVSSGGDVTLQCQ

GPVI peptide 2 (human) = target: T30, GPVI peptide 2 (human)
T30 sequence (peptide, N-terminus acetylated): PSPTALFCLGLCL

GPVI peptide 85 (human) = target: T31, GPVI peptide 85 (human)
T31 sequence (peptide, N-terminus acetylated): TVTAAHSGTYRCY

GPVI peptide 105 (human) = target: T32, GPVI peptide 105 (human)
T32 sequence (peptide, N-terminus acetylated): PSRLPTEPPSSVA

GPVI peptide 43 (human) = target: T33, GPVI peptide 43 (human)
T33 sequence (peptide, N-terminus acetylated): RYRCSYQNGSLWS

GPVI peptide 66 (human) = target: T34, GPVI peptide 66 (human)
T34 sequence (peptide, N-terminus acetylated): TLQCQTRYGFDQF

GPVI peptide 102 (human) = target: T35, GPVI peptide 102 (human)
T35 sequence (peptide, N-terminus acetylated): TGTSVTPSRLPTE

GPVI peptide 114 (human) = target: T36, GPVI peptide 114 (human)
T36 sequence (peptide, N-terminus acetylated): TAELTVSFTNKVF

GPVI peptide 27 (human) = target: T37, GPVI peptide 27 (human)
T37 sequence (peptide, N-terminus acetylated): GVDLYRLEKLSSS

GPVI peptide 18 (human) = target: T38, GPVI peptide 18 (human)
T38 sequence (peptide, N-terminus acetylated): SSLVPLEKPVTLR

GPVI peptide 21 (human) = target: T39, GPVI peptide 21 (human)
T39 sequence (peptide, N-terminus acetylated): EKPVTLRCQGPPG

GPVI peptide 3 (human) = target: T40, GPVI peptide 3 (human)
T40 sequence (peptide, N-terminus acetylated): PTALFCLGLCLGR

GPVI peptide 99 (human) = target: T41, GPVI peptide 99 (human)
T41 sequence (peptide, N-terminus acetylated): PLELVVTGTSVTP

GPVI peptide 127 (human) = target: T42, GPVI peptide 127 (human)
T42 sequence (peptide, N-terminus acetylated): ESDSPAGPARQYY

GPVI peptide 119 (human) = target: T43, GPVI peptide 119 (human)
T43 sequence (peptide, N-terminus acetylated): KVFTTETSRSITT

GPVI peptide 35 (human) = target: T44, GPVI peptide 35 (human)
T44 sequence (peptide, N-terminus acetylated): DQAVLFIPAMKRS

GPVI peptide 73 (human) = target: T45, GPVI peptide 73 (human)
T45 sequence (peptide, N-terminus acetylated): LYKEGDPAPYKNP

GPVI peptide 95 (human) = target: T46, GPVI peptide 95 (human)
T46 sequence (peptide, N-terminus acetylated): YLWSAPSDPLELV

GPVI peptide 83 (human) = target: T47, GPVI peptide 83 (human)
T47 sequence (peptide, N-terminus acetylated): FPIITVTAAHSGT

GPVI peptide 111 (human) = target: T48, GPVI peptide 111 (human)
T48 sequence (peptide, N-terminus acetylated): AEFSEATAELTVS

GPVI peptide 116 (human) = target: T49, GPVI peptide 116 (human)
T49 sequence (peptide, N-terminus acetylated): TVSFTNKVFTTET

GPVI peptide 70 (human) = target: T50, GPVI peptide 70 (human)
T50 sequence (peptide, N-terminus acetylated): GFDQFALYKEGDP

GPVI peptide 101 (human) = target: T51, GPVI peptide 101 (human)
T51 sequence (peptide, N-terminus acetylated): VVTGTSVTPSRLP

GPVI peptide 82 (human) = target: T52, GPVI peptide 82 (human)
T52 sequence (peptide, N-terminus acetylated): ASFPIITVTAAHS

GPVI peptide 1 (human) = target: T53, GPVI peptide 1 (human)
T53 sequence (peptide, N-terminus acetylated): MSPSPTALFCLGL

GPVI peptide 129 (human) = target: T54, GPVI peptide 129 (human)
T54 sequence (peptide, N-terminus acetylated): PAGPARQYYTKGN

Measured: binding

B1: monoclonal antibody hGP 5C4 (antibody, V domains shown)
VH: EVKLQESGGGLVQPGRSLKLSCTASGFTFSDYFMSWVRQAPTRGLEWVASISSGGASAYWRDSVKGRFTISRDNAKSALYLQMDSLRSEDTATYFCARGELDFDYWGQGVMVAVSS
VL: ADPNSTLLSASVGDRVTLNCTASQNVYKNLAWYQQKLGEAPRLLLYSANSQTGIPSRFSGSGSGPDFTLTISSLQPEDVASYFCQQYYSGNTFGAGTKLELKR
notes: Monoclonal IgG from Lou/C rats immunized with Fc-GPVI-nt; also called ab 5C4; anti-GPVI mAb 5C4
no binding (tested: 500 LU): all assays above
